These are yes or no findings as the source states them, for the method shown.
Molecular target: T1, human formyl peptide receptor-like 2 (FPRL2) (human) (UniProt P25089)
T1 sequence: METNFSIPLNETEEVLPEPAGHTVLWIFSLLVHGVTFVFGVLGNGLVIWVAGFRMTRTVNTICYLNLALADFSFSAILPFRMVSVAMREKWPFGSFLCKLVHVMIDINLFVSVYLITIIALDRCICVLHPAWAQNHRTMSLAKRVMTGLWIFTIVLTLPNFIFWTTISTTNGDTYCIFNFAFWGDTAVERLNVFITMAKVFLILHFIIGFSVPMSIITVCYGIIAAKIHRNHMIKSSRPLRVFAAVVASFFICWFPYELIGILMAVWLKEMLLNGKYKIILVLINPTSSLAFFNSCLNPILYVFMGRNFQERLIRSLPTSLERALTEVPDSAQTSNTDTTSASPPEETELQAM
Assay: competition binding on FPRL2-expressing CHO-K1 cells, tracer F2L-[125I]Tyr

binding: no binding (tested: 3 µM)
Binder: MLWRRKIGPQMTLSHAAG (also called CCL23-derived SHAAG peptide) [SHAAG peptide derived from CCL23 N-terminus]
